In article PMC5437023:
Results are given in words; binding and its absence hold for the method and conditions named. Binding seen in cells or lysates may run through a third protein. Some entries that bind do so weakly or less than the wild type.

Chains of the proteins cited; added tags and fusions are not shown.
UniProt P35639: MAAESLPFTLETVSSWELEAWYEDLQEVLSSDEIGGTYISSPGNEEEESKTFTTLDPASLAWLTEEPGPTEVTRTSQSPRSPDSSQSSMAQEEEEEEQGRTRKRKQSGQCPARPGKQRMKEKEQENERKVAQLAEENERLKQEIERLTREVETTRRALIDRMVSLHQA
UniProt O60260: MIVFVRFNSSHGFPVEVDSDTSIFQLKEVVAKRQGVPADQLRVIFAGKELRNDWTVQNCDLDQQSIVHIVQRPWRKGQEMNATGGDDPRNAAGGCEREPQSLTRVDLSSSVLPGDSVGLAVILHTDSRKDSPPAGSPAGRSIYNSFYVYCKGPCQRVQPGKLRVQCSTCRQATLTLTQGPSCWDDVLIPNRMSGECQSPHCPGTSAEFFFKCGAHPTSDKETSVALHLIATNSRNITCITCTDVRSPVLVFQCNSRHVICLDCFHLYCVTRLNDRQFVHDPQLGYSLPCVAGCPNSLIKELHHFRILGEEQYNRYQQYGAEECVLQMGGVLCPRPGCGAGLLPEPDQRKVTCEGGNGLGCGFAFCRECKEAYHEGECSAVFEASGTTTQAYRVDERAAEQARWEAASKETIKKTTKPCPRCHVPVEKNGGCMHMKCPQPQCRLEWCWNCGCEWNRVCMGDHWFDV
UniProt P35638: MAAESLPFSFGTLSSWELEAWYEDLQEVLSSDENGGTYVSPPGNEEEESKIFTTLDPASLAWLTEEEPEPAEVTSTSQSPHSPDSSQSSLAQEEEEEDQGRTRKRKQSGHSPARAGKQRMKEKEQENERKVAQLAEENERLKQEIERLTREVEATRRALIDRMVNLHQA

Tests used:
[1] = target: Myc-CHOP (pcDNA-Myc-CHOP, wild type) (UniProt P35639); test: co-IP; HL-1 cells cotransfected with pcDNA-Myc-CHOP and p3xFlag-Parkin; reciprocal pull-down with anti-Myc agarose, immunoblot with Parkin antibody; lysis buffer 50 mM Tris-HCl pH 7.4, 1% Triton X-100, 0.5% NP-40, 300 mM NaCl
[2] = target: Parkin, endogenous in SH-SY5Y cells (human (endogenous in SH-SY5Y)) (UniProt O60260); test: co-IP; endogenous proteins; SH-SY5Y cells treated with 25 mM thapsigargin for 5 hrs, crosslinked with 0.4% PFA for 20 mins on ice, lysed in Co-IP buffer (20 mM Tris-HCl pH 8, 137 mM NaCl, 1% NP-40, 2 mM EDTA, 10% glycerol); pull-down with Parkin monoclonal antibody (IgG as control) and protein A/G magnetic beads, immunoblot with CHOP and Parkin antibody
[3] = target: 3xFlag-Parkin (WT-Parkin subcloned into p3xFlag) (UniProt O60260); test: co-IP; HL-1 cells cotransfected with pcDNA-Myc-CHOP and p3xFlag-Parkin; immunoprecipitation with anti-Flag M2 agarose overnight at 4 °C, immunoblot with anti-CHOP; lysis buffer 50 mM Tris-HCl pH 7.4, 1% Triton X-100, 0.5% NP-40, 300 mM NaCl

3xFlag-Parkin (WT-Parkin subcloned into p3xFlag) (from UniProt O60260 1-465) (enzyme)
binding [1]: binds

CHOP, endogenous in SH-SY5Y cells (from UniProt P35638 1-169)
binding [2]: binds

Myc-CHOP (pcDNA-Myc-CHOP, wild type) (from UniProt P35639 1-168)
binding [3]: binds
